## Small-molecule microarray binding calls

From ROBIN, a set of small-molecule microarray screens (doi:10.1002/anie.202211358).

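Each compound is printed as two spots on a slide made to bind it covalently, so it has no test concentration; the read-out is fluorescence of the bound, labelled oligonucleotide. For the PreQ1, TPP and SAM-II riboswitches the laboratory earlier reported (doi:10.1038/s41467-019-09493-3) 1 µM RNA, 2 h, and a rule that included a mean Z-score above 3 (spot signal-to-noise against the whole library), a score well above that on a control array, and duplicate spots agreeing (coefficient of variation under 100). The data file gives only the calls; its cut-offs may differ, and compounds hitting several targets are kept. These are primary screening calls, not affinities; a compound without a hit may have attached poorly or may still bind in solution.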
Key: 1 = hit, 0 = tested without a hit.
This is an unselected part of the compounds tested.
A dash means that no call is listed here.

Oligonucleotides screened, 5′ to 3′:
PreQ1: PreQ1 riboswitch RNA pseudoknot, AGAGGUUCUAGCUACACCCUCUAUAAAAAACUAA. From B. subtilis. About 24,000 compounds screened, about 170 hits.
TPP: TPP riboswitch RNA three-way junction, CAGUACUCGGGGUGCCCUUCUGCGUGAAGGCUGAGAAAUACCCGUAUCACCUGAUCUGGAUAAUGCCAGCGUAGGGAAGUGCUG. About 24,000 compounds screened, about 160 hits.
SAM-II: SAM-II riboswitch RNA pseudoknot, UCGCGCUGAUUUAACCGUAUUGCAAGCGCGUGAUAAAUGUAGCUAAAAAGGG. About 21,000 compounds screened, about 200 hits.

Compound	PreQ1	TPP	SAM-II
Cc1occc1C(=O)N1C[C@H](O)[C@@H](N2CCN(Cc3ccccc3)CC2)C1	0	0	0
O=C1OC(Nc2ccccc2C(F)(F)F)c2ccccc21 (stereo not drawn)	0	0	0
COc1cc(N2CCCN(C3CCCCC3)CC2)nc(N)n1	0	0	0
CC1(C)CC(NC(=S)Nc2ccc(Cl)c(Cl)c2)CC(C)(C)N1	0	0	0
Nc1nc(CSc2nc3ccccc3s2)nc(N2CCOCC2)n1	0	0	0
Cc1c(-c2ccccc2)n(CCO)c2nc3c(c(=O)n(C)c(=O)n3C)n12	0	0	0
CS(=O)(=O)c1ccc(N2CCN(C(=O)[C@H]3CC[C@@H](N)C3)CC2)c(F)c1	0	0	0
CCN(CC)CC(O)COCCC12CC3CC(CC(C3)C1)C2.Cl (stereo not drawn)	0	0	0
Cc1ccc2c(c1)c(-c1ccccc1)c(-c1ccccc1)n2CC(O)CN1CCCCC1 (stereo not drawn)	0	0	0
N#CC1=C(N)OC2=C(C1c1ccc(F)cc1)S(=O)(=O)N(Cc1ccc(F)cc1)c1ccccc12 (stereo not drawn)	0	0	-
COc1ccc(C(=O)CC2(O)C(=O)Nc3c(Cl)ccc(Cl)c32)cc1 (stereo not drawn)	0	0	0
NC1=C(c2nc3ccccc3s2)C(=O)CN1c1cccc(F)c1	0	0	-
NC(=O)c1ccc(-c2ccc(F)c(CO)c2)cc1	0	0	0
Cc1nc(C)n(CCNC(=O)c2cn([C@H]3CC[C@@H](N)CC3)nn2)n1	0	0	0
CCn1c(CC2CCN(Cc3cccc(OCCO)c3)CC2)nn(C)c1=O	0	0	0
Cc1noc(NS(=O)(=O)c2ccc(N)cc2)c1C	0	0	0
Cc1cc(Nc2c(-c3ccc(Cl)cc3)c(=O)c2=O)ccc1Br	0	0	-
Nc1nn(-c2cc(C(=O)O)cc(S(=O)(=O)N3CCOCC3)c2)c2ccccc12	0	0	0
COc1cccc(CCNCc2ccc(C(F)(F)F)cc2)c1	0	0	0
O=C1C(Nc2ccccc2)=CC(Nc2ccccc2)C1=Cc1ccccc1 (stereo not drawn)	0	0	0
CC(O)c1ccc(-c2ccc(CNCCc3c[nH]c4ccccc34)o2)cc1.Cl (stereo not drawn)	0	0	1
Cc1ccc(Nc2nc(-c3ccccn3)cs2)cc1C	0	0	0
CCOC(=O)C1=C(C)OC(N)=C(C#N)C1c1cc(Br)cs1 (stereo not drawn)	0	0	0
CC(c1ccccc1)N1CC(=O)C(c2nc3ccccc3c(=O)[nH]2)=C1N (stereo not drawn)	0	0	-
CN(CC(=O)N1C[C@@H](CN2CCCCCC2)[C@@H](CO)C1)Cc1ccccc1F	0	0	0
COc1ccccc1CNCc1ccccc1OC	0	0	0
COc1ccc(-c2c(C#N)c(N)nc3c2CCCCCC3)cc1OC	0	0	0
CC1=NC(C)(C)CC2CCC(O)C12 (stereo not drawn)	0	0	0
Nc1ccc(C(=O)Nc2cccc(-c3nc(N4CCOCC4)c4oc5ncccc5c4n3)c2)cn1	0	0	0
CCS(=O)(=O)Nc1ccc(C(=O)N2CC[C@](C)(O)[C@@H](O)C2)cc1	1	0	0
Cc1cccnc1N1CCN(C(=O)Cc2c(C)nc(N)nc2C)CC1	0	0	0
O=C(c1c[nH]c2ccccc12)C(O)C(c1cccs1)N1CCOCC1 (stereo not drawn)	0	0	0
CN1CC2(CCNCC2)CC1C(=O)N1CCC2(CCc3ccccc32)CC1 (stereo not drawn)	0	0	0
COc1cccc2c1OCCCN(Cc1c(CO)cnc(C)c1O)C2	0	0	0
COc1ccc(-c2noc(-c3nnn(-c4ccc(F)cc4F)c3N)n2)cc1	0	0	-
N#CC1=C(N)Oc2[nH]c(=O)[nH]c(=O)c2C1c1cccc2ccccc12 (stereo not drawn)	0	0	0
Oc1ccc(CN2CCCC3(CCNCC3)CC2)cc1Cl	0	0	0
Cn1nc(-c2cc(O)cc(CCC3CCCCN3)c2)nc1N1CCCCC1 (stereo not drawn)	0	0	0
C=CCOc1ccc(C2C(C#N)=C(N)OC3=C2C(=O)c2ccccc2C3=O)cc1 (stereo not drawn)	0	0	0
Cc1ccc2oc(=O)n(CC(=O)NCc3cc4n(n3)CCNC4)c2c1	0	0	0
CN(Cc1cnc(N)nc1)C(=O)c1ccc(-c2ccccc2Cl)o1	0	0	0
Fc1cccc(C2(Cn3cc(C4CCCNC4)nn3)CCOCC2)c1 (stereo not drawn)	0	0	0
COc1ccc(C(CCNCc2ccc(N(C)C)cc2)C2CCOC(C)(C)C2)cc1 (stereo not drawn)	0	0	0
CCCS(=O)(=O)c1c(S(=O)(=O)CCC)c2c(N)cccn2c1C(=O)c1ccc(OC)cc1	0	0	0
Cc1cc(NC(=O)CNCc2csc(-c3cnccn3)n2)ccc1Cl	0	0	0
CC(O)CCNS(=O)(=O)c1ccc2c(c1)CCN(C(=O)c1ccc[nH]1)C2 (stereo not drawn)	0	0	0
CCOC(=O)c1nc(Nc2ccc(C(=O)OC)cc2)c2ccccc2n1	0	0	0
COc1ccc(OC)c(Nc2nc(C)nc3c2CCC3)c1	0	0	-
CCn1c(N)nc2cc(C(=O)NCCc3cn4ccsc4n3)cnc21	0	0	0
CN1CCc2[nH]nc(C(=O)N(CC=Cc3ccccc3)CCO)c2C1	0	0	0
O=C1c2ccccc2NC(c2ccc3c(c2)OCO3)N1c1ccc(F)cc1 (stereo not drawn)	0	0	0
Brc1ccc(CNc2cc3c(cc2Br)OCCO3)cc1	0	0	0
CN(Cc1noc(C2CCC2)n1)c1nc(N)nc2c1CCCC2	0	0	0
CC[n+]1ccsc1N.Cc1ccc(S(=O)(=O)[O-])cc1	0	0	0
Cc1cccnc1NC(=O)c1csnn1	0	0	0
COC(=O)C1=C(N)OC2=C(C(=O)CCC2)C1c1ccc(C)cc1 (stereo not drawn)	0	0	0
Cc1cc2nc(-c3ccccc3)cc(N[C@@H]3CNCC[C@H]3O)n2n1	0	0	0
CCCc1n(CC(O)COC2CCCCC2)c2ccccc2[n+]1CC (stereo not drawn)	0	0	0
COC(=O)c1cc(NC2c3ccccc3C(=O)N2c2ccccn2)cc(C(=O)OC)c1 (stereo not drawn)	0	0	0
CCc1ncc(CN2CCN(c3cc(NC4CC4)nc(N)n3)CC2)cn1	0	0	0
O=C1OCC/C1=C\OCCCO/C=C1\CCOC1=O	0	0	0

The last 5 entries again:

Compound	PreQ1	TPP	SAM-II
Cc1cc2nc(-c3ccccc3)cc(N[C@@H]3CNCC[C@H]3O)n2n1	0	0	0
CCCc1n(CC(O)COC2CCCCC2)c2ccccc2[n+]1CC (stereo not drawn)	0	0	0
COC(=O)c1cc(NC2c3ccccc3C(=O)N2c2ccccn2)cc(C(=O)OC)c1 (stereo not drawn)	0	0	0
CCc1ncc(CN2CCN(c3cc(NC4CC4)nc(N)n3)CC2)cn1	0	0	0
O=C1OCC/C1=C\OCCCO/C=C1\CCOC1=O	0	0	0